Some targets named below: SPIB (UniProt Q01892); ETV5 (UniProt P41161); ELF4 (UniProt Q99607).
Holding throughout (assay): DAPPL (digital affinity profiling via proximity ligation, sequencing)
What all share (conditions): 10 mM Tris-HCl pH 7.5, 50 mM NaCl, 1 mM DTT, 4% glycerol, room temperature, 30 min; GST-TFs on glutathione beads, 16-mer random dsDNA library, 0.1% …; high values mean tight binding; double strand, one strand shown; scale: fold enrichment (6-mer frequency, TF over GST control)

Chains of the proteins cited; added tags and fusions are not shown. Lines headed by an entry give the natural chain unless they say otherwise; changes in a name come on top.
UniProt Q01892: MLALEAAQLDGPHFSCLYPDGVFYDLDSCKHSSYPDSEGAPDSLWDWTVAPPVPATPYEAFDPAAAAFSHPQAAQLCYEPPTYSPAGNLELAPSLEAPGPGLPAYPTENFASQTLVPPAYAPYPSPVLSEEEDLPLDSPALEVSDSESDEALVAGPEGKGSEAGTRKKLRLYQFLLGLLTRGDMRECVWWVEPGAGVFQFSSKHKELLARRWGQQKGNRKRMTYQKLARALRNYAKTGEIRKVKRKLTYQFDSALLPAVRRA
UniProt P41161: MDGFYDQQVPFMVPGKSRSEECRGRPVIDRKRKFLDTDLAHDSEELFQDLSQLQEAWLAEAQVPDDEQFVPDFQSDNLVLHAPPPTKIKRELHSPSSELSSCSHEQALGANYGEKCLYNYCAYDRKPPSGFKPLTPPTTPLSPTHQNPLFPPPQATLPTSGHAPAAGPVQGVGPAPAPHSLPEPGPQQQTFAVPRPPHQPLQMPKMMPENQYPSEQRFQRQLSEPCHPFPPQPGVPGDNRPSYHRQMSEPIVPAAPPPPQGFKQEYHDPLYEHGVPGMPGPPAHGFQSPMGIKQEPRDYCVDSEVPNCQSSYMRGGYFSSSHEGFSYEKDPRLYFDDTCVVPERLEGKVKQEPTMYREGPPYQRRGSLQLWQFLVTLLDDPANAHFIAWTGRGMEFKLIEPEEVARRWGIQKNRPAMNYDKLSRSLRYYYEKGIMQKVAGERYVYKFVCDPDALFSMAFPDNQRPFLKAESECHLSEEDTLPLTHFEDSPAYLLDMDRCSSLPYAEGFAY
UniProt Q99607: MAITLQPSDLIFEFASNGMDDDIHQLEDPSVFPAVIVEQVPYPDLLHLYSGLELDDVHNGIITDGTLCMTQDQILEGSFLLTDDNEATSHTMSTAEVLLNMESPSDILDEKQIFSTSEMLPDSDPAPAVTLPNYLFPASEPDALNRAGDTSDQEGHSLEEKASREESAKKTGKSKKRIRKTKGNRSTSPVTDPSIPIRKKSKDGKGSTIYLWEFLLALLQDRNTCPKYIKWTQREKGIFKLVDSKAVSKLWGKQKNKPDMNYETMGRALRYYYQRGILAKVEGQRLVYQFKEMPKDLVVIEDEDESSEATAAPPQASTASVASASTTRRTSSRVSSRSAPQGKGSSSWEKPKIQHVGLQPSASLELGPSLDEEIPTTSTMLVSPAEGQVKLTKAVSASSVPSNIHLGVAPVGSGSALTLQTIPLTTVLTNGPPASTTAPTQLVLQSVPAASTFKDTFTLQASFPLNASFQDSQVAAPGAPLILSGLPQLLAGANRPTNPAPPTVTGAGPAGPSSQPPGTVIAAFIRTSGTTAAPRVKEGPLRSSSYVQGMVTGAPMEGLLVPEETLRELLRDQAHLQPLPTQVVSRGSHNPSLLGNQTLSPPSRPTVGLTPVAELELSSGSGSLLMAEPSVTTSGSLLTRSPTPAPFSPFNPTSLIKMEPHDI

Another test concerns the target T1, FLI1 (UniProt Q01543).
T1 sequence: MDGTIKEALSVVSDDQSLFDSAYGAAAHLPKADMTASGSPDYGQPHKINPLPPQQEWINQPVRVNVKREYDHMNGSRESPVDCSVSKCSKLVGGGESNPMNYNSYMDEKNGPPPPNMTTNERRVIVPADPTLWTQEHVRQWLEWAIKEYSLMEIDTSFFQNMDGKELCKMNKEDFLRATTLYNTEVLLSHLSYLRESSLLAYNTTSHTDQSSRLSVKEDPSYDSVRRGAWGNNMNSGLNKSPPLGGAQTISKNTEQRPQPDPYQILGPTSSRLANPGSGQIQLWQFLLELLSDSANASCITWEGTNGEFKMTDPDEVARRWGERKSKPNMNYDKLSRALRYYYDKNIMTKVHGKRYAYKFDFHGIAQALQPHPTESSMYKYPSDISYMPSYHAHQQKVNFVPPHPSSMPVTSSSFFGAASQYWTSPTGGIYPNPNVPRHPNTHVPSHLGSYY

Another test concerns the target T2, EHF (UniProt Q9NZC4).
T2 sequence: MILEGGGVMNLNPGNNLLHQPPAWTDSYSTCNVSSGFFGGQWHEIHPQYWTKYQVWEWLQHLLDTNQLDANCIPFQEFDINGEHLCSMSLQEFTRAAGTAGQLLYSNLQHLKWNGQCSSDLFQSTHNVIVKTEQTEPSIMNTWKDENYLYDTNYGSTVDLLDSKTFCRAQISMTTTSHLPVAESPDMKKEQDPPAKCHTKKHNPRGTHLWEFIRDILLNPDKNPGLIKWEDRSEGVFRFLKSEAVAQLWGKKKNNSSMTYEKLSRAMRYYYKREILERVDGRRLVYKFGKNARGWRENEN

A further test addresses T3, ETV2 (UniProt O00321).
T3 sequence: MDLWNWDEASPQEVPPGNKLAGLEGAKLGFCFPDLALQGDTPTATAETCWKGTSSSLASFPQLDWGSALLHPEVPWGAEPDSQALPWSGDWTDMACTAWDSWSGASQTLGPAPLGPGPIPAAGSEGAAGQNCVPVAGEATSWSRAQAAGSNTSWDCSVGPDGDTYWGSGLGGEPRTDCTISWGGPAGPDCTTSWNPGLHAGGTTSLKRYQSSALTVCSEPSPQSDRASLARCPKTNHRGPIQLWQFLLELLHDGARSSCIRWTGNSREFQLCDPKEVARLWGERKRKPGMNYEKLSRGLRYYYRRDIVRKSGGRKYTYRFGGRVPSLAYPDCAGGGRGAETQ

A further test addresses T4, ETV3L (UniProt Q6ZN32).
T4 sequence: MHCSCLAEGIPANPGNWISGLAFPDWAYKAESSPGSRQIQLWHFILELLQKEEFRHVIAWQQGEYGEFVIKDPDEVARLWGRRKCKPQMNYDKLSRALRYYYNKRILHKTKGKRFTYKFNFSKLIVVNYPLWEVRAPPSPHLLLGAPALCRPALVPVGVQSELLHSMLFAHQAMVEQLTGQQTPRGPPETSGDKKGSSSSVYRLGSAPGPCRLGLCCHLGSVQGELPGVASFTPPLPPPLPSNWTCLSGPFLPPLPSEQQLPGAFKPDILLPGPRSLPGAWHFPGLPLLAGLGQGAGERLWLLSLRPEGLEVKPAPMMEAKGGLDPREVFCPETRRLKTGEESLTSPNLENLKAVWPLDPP

This is a selection; strong and weak results do not stand in their true shares. At the low end of the ranking, values are background and their order means little.

Regarding GCGGTT, the binding signal in the test with FLI1 came out at 0.786; with EHF, 0.75; with SPIB it was 0.824; in the test with ETV5, 0.833; in the test with ELF4, 0.755; in the test with ETV2, 0.75. This sequence displayed a binding signal with ETV3L of 0.74.
Turning to AGACAG, the binding signal in the test with FLI1 was determined as 0.508; with EHF, 0.509; with SPIB it was 0.535; in the test with ETV5, 0.536; in the test with ELF4, 0.524; in the test with ETV2 it was 0.493. This sequence also yielded a binding signal with ETV3L of 0.518.
Take TGGGCC: the binding signal with FLI1 amounted to 0.964; with EHF, 0.929; in the test with SPIB, 0.904; with ETV5, 0.804; with ELF4 it was 0.856; with ETV2 it was 0.986. The sequence further had a binding signal with ETV3L of 0.949.
With GTCGGC, the binding signal came out at 0.346 with FLI1; 0.402 with EHF; 0.41 with SPIB; 0.367 with ETV5; 0.385 with ELF4; 0.44 in the test with ETV2. The sequence further showed a binding signal with ETV3L of 0.353.
In the case of AGGTGC, the binding signal turned out to be 0.682 in the test with FLI1; 0.632 with EHF; 0.673 with SPIB; 0.644 with ETV5; 0.683 with ELF4; 0.775 with ETV2. The same sequence gave a binding signal with ETV3L of 0.692.
Consider CGGTTG, for which the binding signal with FLI1 is 0.743; with EHF, 0.794; with SPIB it was 0.742; with ETV5, 0.805; with ELF4, 0.722; with ETV2, 0.804. The same sequence showed a binding signal in the test with ETV3L of 0.782.
For the sequence GTAGGG, the binding signal with FLI1 was determined as 0.599; with EHF it was 0.725; with SPIB it was 0.702; with ETV5 it was 0.727; with ELF4 it was 0.708; with ETV2, 0.652. Moreover, in the test with ETV3L, the binding signal was 0.742.
As to CGCCGT, the binding signal with FLI1 is 0.948; with EHF it was 0.917; in the test with SPIB, 0.833; with ETV5, 0.84; with ELF4, 0.943; in the test with ETV2, 0.821. The same sequence registered a binding signal with ETV3L of 0.876.
On to ATCGGT, for which the binding signal with FLI1 came to 0.693; with EHF, 0.746; with SPIB it was 0.642; with ETV5, 0.681; in the test with ELF4, 0.67; with ETV2 it was 0.698. The sequence also showed a binding signal with ETV3L of 0.693.
In the case of TGCAGT, the binding signal came out at 0.819 with FLI1; 0.786 in the test with EHF; 0.778 with SPIB; 0.804 with ETV5; 0.847 with ELF4; 0.913 in the test with ETV2. Moreover, the binding signal with ETV3L stood at 0.88.
Regarding TCGGAC, the binding signal is 0.362 in the test with FLI1; 0.397 with EHF; 0.345 in the test with SPIB; 0.334 with ETV5; 0.349 with ELF4; 0.377 in the test with ETV2. The same sequence returned a binding signal with ETV3L of 0.383.
For CGGGGT, the binding signal in the test with FLI1 was found to be 0.654; with EHF, 0.614; with SPIB, 0.642; with ETV5, 0.639; with ELF4, 0.609; with ETV2, 0.606. This sequence displayed a binding signal with ETV3L of 0.618.
For GAGCAC, the binding signal with FLI1 turned out to be 0.771; with EHF it was 0.75; with SPIB, 0.689; with ETV5 it was 0.698; in the test with ELF4, 0.719; with ETV2, 0.69. Besides, the binding signal with ETV3L came out at 0.798.
For the sequence ACGTAG, the binding signal was 0.799 with FLI1; 0.751 with EHF; 0.717 with SPIB; 0.759 in the test with ETV5; 0.805 in the test with ELF4; 0.657 with ETV2. This sequence also returned a binding signal with ETV3L of 0.743.
Turning to GAGGTT, the binding signal with FLI1 came to 0.731; with EHF it was 0.8; with SPIB, 0.757; with ETV5, 0.781; with ELF4, 0.77; with ETV2 it was 0.77. In addition, in the test with ETV3L, the binding signal came to 0.808.
Turning to GGACCG, the binding signal in the test with FLI1 was found to be 0.812; with EHF it was 0.773; with SPIB, 0.874; in the test with ETV5, 0.85; in the test with ELF4, 0.784; with ETV2, 0.825. Also, the binding signal with ETV3L is 0.812.
Regarding ACACAG, the binding signal with FLI1 was 0.971; with EHF, 0.926; with SPIB, 0.945; with ETV5, 0.977; with ELF4, 0.983; in the test with ETV2 it was 0.95. Also, the binding signal with ETV3L worked out at 1.05.
Regarding CGGCGG, the binding signal in the test with FLI1 amounted to 0.572; in the test with EHF it was 0.578; with SPIB, 0.625; with ETV5 it was 0.603; with ELF4 it was 0.589; with ETV2 it was 0.551. Also, in the test with ETV3L, the binding signal was 0.607.
With CAGGTA, the binding signal in the test with FLI1 turned out to be 0.821; with EHF, 0.731; in the test with SPIB it was 0.801; with ETV5, 0.809; in the test with ELF4, 0.831; in the test with ETV2, 0.815. Moreover, the binding signal in the test with ETV3L worked out at 0.738.
With AGAGAC, the binding signal with FLI1 was 0.502; with EHF, 0.508; with SPIB, 0.508; with ETV5, 0.523; with ELF4, 0.547; with ETV2, 0.508. The binding signal in the test with ETV3L turned out to be 0.491.
Turning to CGTAAG, the binding signal worked out at 0.776 with FLI1; 0.781 with EHF; 0.737 in the test with SPIB; 0.754 with ETV5; 0.758 in the test with ELF4; 0.802 with ETV2. In addition, the binding signal with ETV3L was determined as 0.806.
On to AAGAGT, for which the binding signal is 0.879 with FLI1; 0.966 with EHF; 0.868 with SPIB; 0.885 with ETV5; 0.918 in the test with ELF4; 0.906 with ETV2. The sequence further yielded a binding signal in the test with ETV3L of 0.842.
As to GTGTCG, the binding signal with FLI1 came out at 0.61; with EHF it was 0.671; with SPIB, 0.589; with ETV5, 0.626; in the test with ELF4 it was 0.605; with ETV2 it was 0.517. For the same sequence, the binding signal in the test with ETV3L was 0.641.
Regarding TAGAGT, the binding signal with FLI1 came to 0.756; with EHF it was 0.748; in the test with SPIB, 0.765; in the test with ETV5, 0.74; with ELF4, 0.765; in the test with ETV2 it was 0.731. In the test with ETV3L, this sequence came in with a binding signal of 0.89.
GGGCGG: the binding signal in the test with FLI1 came out at 0.376; in the test with EHF it was 0.486; with SPIB, 0.452; with ETV5, 0.48; with ELF4 it was 0.438; with ETV2 it was 0.415. The binding signal in the test with ETV3L came to 0.426.
As to GGCGCC, the binding signal with FLI1 is 0.736; with EHF, 0.639; with SPIB, 0.708; in the test with ETV5, 0.653; in the test with ELF4, 0.747; with ETV2, 0.752. The sequence further showed a binding signal in the test with ETV3L of 0.722.
TCGTAG: the binding signal with FLI1 is 0.867; with EHF it was 0.84; with SPIB it was 0.868; with ETV5, 0.855; with ELF4 it was 0.881; in the test with ETV2, 0.785. In the test with ETV3L, this sequence gave a binding signal of 0.878.
Turning to CTGTGA, the binding signal with FLI1 was 0.488; with EHF, 0.519; with SPIB, 0.518; with ETV5, 0.49; with ELF4 it was 0.516; with ETV2 it was 0.484. The same sequence yielded a binding signal with ETV3L of 0.501.
Consider GGTGAG, for which the binding signal with FLI1 is 0.367; in the test with EHF, 0.344; with SPIB, 0.339; in the test with ETV5 it was 0.373; with ELF4, 0.356; with ETV2, 0.311. The binding signal with ETV3L is 0.353.
Regarding CAGTAC, the binding signal with FLI1 is 0.891; with EHF it was 0.876; in the test with SPIB it was 0.85; in the test with ETV5 it was 0.858; in the test with ELF4 it was 0.885; with ETV2, 0.796. This sequence registered a binding signal with ETV3L of 0.829.

Values taken from article PMC7862700.
